The source of these data is the supplement of paper PMC9454738.

Assay in all cases: cell viability relative to vehicle (DMSO) control (fraction); higher = more viable cells (less growth inhibition)
What all share (details): treatment time 48 h

For test [1], the system named is MDA-MB-231 GLI1.
Test [2] has as its system MDA-MB-231 Vector.
Test [3] deals with MDA-MB-231 tGLI1.
Test [4] concerns MDA-MB-231BRM GLI1.
Test [5] concerns MDA-MB-231BRM Vector.
Test [6] has as its system MDA-MB-231BRM tGLI1.

± gives the standard deviation of the averaged measurements. This is one part of the list. This data set is noisy: repeats of one test often differ as much as different tests do.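 Triple-negative MDA-MB-231 breast cancer cells and their brain-metastatic MDA-MB-231BRM derivative each stably expressed empty vector, full-length GLI1 or truncated tGLI1. CellTiter-Blue measured viability at 48 h relative to 1% DMSO vehicle. Compounds reducing viability 20% more in tGLI1 cells than in vector and GLI1 cells counted as tGLI1-selective.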

Turning to `O=C1NC(=O)/C(=C/c2ccc3c(c2)OC(F)(F)O3)S1`, the cell viability in test [1] (0.05 µM) turned out to be 1.23; in test [1] (0.5 µM), 1.32; in test [1] (5 µM), 1.13; in test [2] (0.05 µM), 1.23; in test [2] (0.5 µM), 1.37; in test [2] (5 µM), 1.45. For the same compound, the cell viability in test [3] (0.05 µM) was 1.43; in test [3] (0.5 µM) it was 1.28; in test [3] (5 µM), 1.1; in test [4] (0.05 µM), 0.998; in test [4] (0.5 µM), 1.07; in test [4] (5 µM), 0.915. Also, the cell viability in test [5] (0.05 µM) turned out to be 1.14; in test [5] (0.5 µM), 1.15; in test [5] (5 µM), 0.981; in test [6] (0.05 µM), 1.08; in test [6] (0.5 µM) it was 1.07; in test [6] (5 µM), 0.799.

Regarding `C[C@@H](Oc1cc(-c2cnn(C3CCNCC3)c2)cnc1N)c1c(Cl)ccc(F)c1Cl`, the cell viability in test [1] (0.05 µM) came out at 1.3 ± 0.22; in test [1] (0.5 µM), 1.23 ± 0.43; in test [1] (5 µM), 0.554 ± 0.22; in test [2] (0.05 µM), 1.04 ± 0.43; in test [2] (0.5 µM) it was 1.14 ± 0.029; in test [2] (5 µM), 0.452 ± 0.14. Besides, the cell viability in test [3] (0.05 µM) is 1.19 ± 0.07; in test [3] (0.5 µM), 1.08 ± 0.4; in test [3] (5 µM), 0.376 ± 0.2; in test [4] (0.05 µM), 0.96 ± 0.059; in test [4] (0.5 µM), 0.955 ± 0.032; in test [4] (5 µM), 0.816 ± 0.12. The cell viability in test [5] (0.05 µM) was 0.988 ± 0.1; in test [5] (0.5 µM) it was 0.971 ± 0.043; in test [5] (5 µM) it was 0.926 ± 0.074; in test [6] (0.05 µM), 0.989 ± 0.14; in test [6] (0.5 µM), 0.971 ± 0.037; in test [6] (5 µM), 0.893 ± 0.013.

On to `CNC(=O)c1ccc(Nc2ncc(C(F)(F)F)c(NCc3nccnc3N(C)S(C)(=O)=O)n2)cc1`, for which the cell viability in test [1] (0.05 µM) was determined as 2.14; in test [1] (0.5 µM), 3.18; in test [1] (5 µM) it was 0.762; in test [2] (0.05 µM) it was 1.42; in test [2] (0.5 µM) it was 1.3; in test [2] (5 µM) it was 0.283. For the same compound, the cell viability in test [3] (0.05 µM) was 1.37; in test [3] (0.5 µM), 1.4; in test [3] (5 µM) it was 0.308; in test [4] (0.05 µM) it was 0.831; in test [4] (0.5 µM), 0.72; in test [4] (5 µM), 0.661. Moreover, the cell viability came out at 0.883 in test [5] (0.05 µM); 0.711 in test [5] (0.5 µM); 0.608 in test [5] (5 µM); 1.23 in test [6] (0.05 µM); 0.954 in test [6] (0.5 µM); 0.848 in test [6] (5 µM).

For `COc1cc2ncnc(Oc3cccc(NC(=O)Nc4cc(C(C)(C)C(F)(F)F)on4)c3)c2cc1OC`, the cell viability in test [1] (0.05 µM) was found to be 1.93; in test [1] (0.5 µM), 1.89; in test [1] (5 µM), 0.794; in test [2] (0.05 µM) it was 1.07; in test [2] (0.5 µM), 0.896; in test [2] (5 µM), 0.467. The cell viability was determined as 1.18 in test [3] (0.05 µM); 0.939 in test [3] (0.5 µM); 0.5 in test [3] (5 µM); 0.81 in test [4] (0.05 µM); 0.779 in test [4] (0.5 µM); 0.699 in test [4] (5 µM). Besides, the cell viability in test [5] (0.05 µM) came out at 0.95; in test [5] (0.5 µM), 0.781; in test [5] (5 µM), 0.749; in test [6] (0.05 µM) it was 1.19; in test [6] (0.5 µM) it was 1.14; in test [6] (5 µM) it was 1.12.

As to `CNC(=O)c1ccc(N2C(=S)N(c3ccc(C#N)c(C(F)(F)F)c3)C(=O)C2(C)C)cc1F` [MDV3100 (Enzalutamide)], the cell viability in test [1] (0.05 µM) turned out to be 1.22; in test [1] (0.5 µM) it was 1.1; in test [1] (5 µM), 1.1; in test [2] (0.05 µM), 0.896; in test [2] (0.5 µM) it was 1.19; in test [2] (5 µM), 1.08. Also, the cell viability in test [3] (0.05 µM) worked out at 1.12; in test [3] (0.5 µM), 1.12; in test [3] (5 µM), 0.99; in test [4] (0.05 µM), 1.09; in test [4] (0.5 µM), 1.03; in test [4] (5 µM), 0.94. Moreover, the cell viability in test [5] (0.05 µM) stood at 0.997; in test [5] (0.5 µM), 0.998; in test [5] (5 µM), 0.963; in test [6] (0.05 µM), 0.961; in test [6] (0.5 µM), 1.01; in test [6] (5 µM), 0.985.

With `CCN(CCCOc1ccc2c(Nc3cc(CC(=O)Nc4cccc(F)c4)[nH]n3)ncnc2c1)CCOP(=O)(O)O` [Barasertib (AZD1152-HQPA)], the cell viability in test [1] (0.05 µM) worked out at 1.08; in test [1] (0.5 µM), 1.23; in test [1] (5 µM) it was 0.734; in test [2] (0.05 µM), 1.27; in test [2] (0.5 µM), 0.879; in test [2] (5 µM), 0.536. Moreover, the cell viability in test [3] (0.05 µM) is 0.948; in test [3] (0.5 µM) it was 1.1; in test [3] (5 µM), 1.14; in test [4] (0.05 µM), 0.944; in test [4] (0.5 µM), 0.973; in test [4] (5 µM), 0.946. Moreover, the cell viability in test [5] (0.05 µM) came to 0.957; in test [5] (0.5 µM) it was 0.91; in test [5] (5 µM), 1.06; in test [6] (0.05 µM), 1.01; in test [6] (0.5 µM), 0.923; in test [6] (5 µM), 0.974.

As to `C[C@H](Nc1ncnc2[nH]cnc12)c1cc2ccc(F)cc2nc1-c1ccccn1`, the cell viability in test [1] (0.05 µM) came to 1.15; in test [1] (0.5 µM), 1.86; in test [1] (5 µM) it was 1.18; in test [2] (0.05 µM) it was 0.755; in test [2] (0.5 µM), 0.615; in test [2] (5 µM) it was 0.594. In addition, the cell viability in test [3] (0.05 µM) amounted to 0.682; in test [3] (0.5 µM), 0.714; in test [3] (5 µM), 0.773; in test [4] (0.05 µM), 0.48; in test [4] (0.5 µM), 0.475; in test [4] (5 µM), 0.367. Further, the cell viability in test [5] (0.05 µM) amounted to 0.586; in test [5] (0.5 µM), 0.461; in test [5] (5 µM) it was 0.399; in test [6] (0.05 µM) it was 0.759; in test [6] (0.5 µM), 0.589; in test [6] (5 µM), 0.653.
